Results from article PMC5201015.
Results are given in words; binding and its absence hold for the method and conditions named. In cells and extracts the contact can be indirect. Some binding calls cover weakened binding; strength is not graded here. Tags and fused reporters may be left off the sequences shown. One block for each binder: values may come before it.

Molecular target: T1, HA–SIRT2 (UniProt Q8IXJ6)
T1 sequence: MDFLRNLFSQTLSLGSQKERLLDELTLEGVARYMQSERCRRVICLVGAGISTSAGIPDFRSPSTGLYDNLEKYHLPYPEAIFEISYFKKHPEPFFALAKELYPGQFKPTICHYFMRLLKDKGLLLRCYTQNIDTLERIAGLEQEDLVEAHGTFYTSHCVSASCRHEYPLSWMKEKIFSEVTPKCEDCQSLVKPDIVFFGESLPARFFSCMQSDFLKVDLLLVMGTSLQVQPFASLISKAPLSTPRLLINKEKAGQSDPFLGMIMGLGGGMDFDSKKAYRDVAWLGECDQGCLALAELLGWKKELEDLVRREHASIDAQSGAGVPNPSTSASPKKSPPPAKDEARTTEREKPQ
Experiment: co-IP; anti-HA magnetic beads, lysates of asynchronous and mitotic (nocodazole) HEK293T cells overexpressing HA–SIRT2 and ANKLE2–GFP; 50 mM Tris-HCl pH 8, 150 mM NaCl, 1% Triton X-100; western blot

binding: no binding
B1: HA–PARP3 (enzyme, UniProt Q9Y6F1 1-533)
chain: MAPKPKPWVQTEGPEKKKGRQAGREEDPFRSTAEALKAIPAEKRIIRVDPTCPLSSNPGTQVYEDYNCTLNQTNIENNNNKFYIIQLLQDSNRFFTCWNRWGRVGEVGQSKINHFTRLEDAKKDFEKKFREKTKNNWAERDHFVSHPGKYTLIEVQAEDEAQEAVVKVDRGPVRTVTKRVQPCSLDPATQKLITNIFSKEMFKNTMALMDLDVKKMPLGKLSKQQIARGFEALEALEEALKGPTDGGQSLEELSSHFYTVIPHNFGHSQPPPINSPELLQAKKDMLLVLADIELAQALQAVSEQEKTVEEVPHPLDRDYQLLKCQLQLLDSGAPEYKVIQTYLEQTGSNHRCPTLQHIWKVNQEGEEDRFQAHSKLGNRKLLWHGTNMAVVAAILTSGLRIMPHSGGRVGKGIYFASENSKSAGYVIGMKCGAHHVGYMFLGEVALGREHHINTDNPSLKSPPPGFDSVIARGHTEPDPTQDTELELDGQQVVVPQGQPVPCPEFSSSTFSQSEYLIYQESQCRLRYLLEVHL

binding: binds
B2: ANKLE2–GFP (protein, UniProt Q86XL3 1-938)
chain: MLWPRLAAAEWAALAWELLGASVLLIAVRWLVRRLGPRPGGLGRSGTPVPPPSAAAAPASGEMTMDALLARLKLLNPDDLREEIVKAGLKCGPITSTTRFIFEKKLAQALLEQGGRLSSFYHHEAGVTALSQDPQRILKPAEGNPTDQAGFSEDRDFGYSVGLNPPEEEAVTSKTCSVPPSDTDTYRAGATASKEPPLYYGVCPVYEDVPARNERIYVYENKKEALQAVKMIKGSRFKAFSTREDAEKFARGICDYFPSPSKTSLPLSPVKTAPLFSNDRLKDGLCLSESETVNKERANSYKNPRTQDLTAKLRKAVEKGEEDTFSDLIWSNPRYLIGSGDNPTIVQEGCRYNVMHVAAKENQASICQLTLDVLENPDFMRLMYPDDDEAMLQKRIRYVVDLYLNTPDKMGYDTPLHFACKFGNADVVNVLSSHHLIVKNSRNKYDKTPEDVICERSKNKSVELKERIREYLKGHYYVPLLRAEETSSPVIGELWSPDQTAEASHVSRYGGSPRDPVLTLRAFAGPLSPAKAEDFRKLWKTPPREKAGFLHHVKKSDPERGFERVGRELAHELGYPWVEYWEFLGCFVDLSSQEGLQRLEEYLTQQEIGKKAQQETGEREASCRDKATTSGSNSISVRAFLDEDDMSLEEIKNRQNAARNNSPPTVGAFGHTRCSAFPLEQEADLIEAAEPGGPHSSRNGLCHPLNHSRTLAGKRPKAPRGEEAHLPPVSDLTVEFDKLNLQNIGRSVSKTPDESTKTKDQILTSRINAVERDLLEPSPADQLGNGHRRTESEMSARIAKMSLSPSSPRHEDQLEVTREPARRLFLFGEEPSKLDQDVLAALECADVDPHQFPAVHRWKSAVLCYSPSDRQSWPSPAVKGRFKSQLPDLSGPHSYSPGRNSVAGSNPAKPGLGSPGRYSPVHGSQLRRMARLAELAAL
